Some of the results follow.
Biological target: OsWRKY34 (Oryza sativa, UniProt Q0JBA9 1-250)
Test: protein-binding microarray (RPBM); PBS, 2% BSA, 51.3 ng/ul salmon testes DNA, 50 uM zinc acetate, 200 nM TF, 25 C, 1 h; high values mean tight binding
Conditions: protein: recombinant; tags: N-terminal polyhistidine and DsRed monomer fusion (pET32a); label: CyDye5-dUTP incorporated in the synthesized complementary strand; 3' TTTTT single-stranded linker to array surface; dsDNA, one strand shown
How it was run: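 Binding signal is defined as the fluorescence intensity of each feature in arbitrary units, read on an Axon 4000B scanner. Transcription factors with N-terminal polyhistidine and DsRed fusions came from E. coli BL21-CodonPlus and were purified on Ni–NTA. They were incubated at 200 nM for 1 h at 25 °C on a custom Agilent array that had been made double-stranded with Cy5-dUTP, with 50 µM zinc acetate present, and the array was washed.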

Amino acid sequences for entries named in this document (tags omitted).
UniProt Q0JBA9, entry or part of it: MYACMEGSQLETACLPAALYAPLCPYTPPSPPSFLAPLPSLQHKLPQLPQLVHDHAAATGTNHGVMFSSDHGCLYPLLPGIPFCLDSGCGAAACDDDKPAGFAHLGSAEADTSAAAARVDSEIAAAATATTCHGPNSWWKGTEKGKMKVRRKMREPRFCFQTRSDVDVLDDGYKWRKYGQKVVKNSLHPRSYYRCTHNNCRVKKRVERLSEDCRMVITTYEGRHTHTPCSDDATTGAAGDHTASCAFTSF

Sequence	binding signal
TCTACATGTTTGCTGCTGGATTTTACACATATTCCATCTTCGGAGTCACCTAGTGCAG	8340 fluorescence intensity (a.u.)
GTAATTAATTAACAACTCACCGTCCTTATATAATTGTTTTCGGAGTCACCTAGTGCAG	10900 fluorescence intensity (a.u.)
CGTCCGTCCGGCGACCCGGTTTGACCCACCCCAGTAGCGTCGGAGTCACCTAGTGCAG	9280 fluorescence intensity (a.u.)
CATATCCTGTACAAATCCGGGAATCGCGTACTCTCACAATCGGAGTCACCTAGTGCAG	8670 fluorescence intensity (a.u.)
GGTCCTGTGTAATTTTCTTCCGCGATGGCCACACGTGACGCGGAGTCACCTAGTGCAG	9990 fluorescence intensity (a.u.)
GGTCTGGTTTTCCGTGTGTGCACGGTCGGGGTGCGCGTGGCGGAGTCACCTAGTGCAG	14300 fluorescence intensity (a.u.)
CCATGTATGTGGGCTACCTTAAATTCAGGTTATTTCTTTACGGAGTCACCTAGTGCAG	8192 fluorescence intensity (a.u.)
TTTGAGTTGGTTTTGAGATTTTTTTCATTGTAATTTATTTCGGAGTCACCTAGTGCAG	8050 fluorescence intensity (a.u.)
ATATGTTGAAACTTTCTCTATGTTACATCTGCTTTCTAATCGGAGTCACCTAGTGCAG	8120 fluorescence intensity (a.u.)
CTTGTTTGGTGTGTTCAACTTGTCTTGAACTATACTCTCTCGGAGTCACCTAGTGCAG	8290 fluorescence intensity (a.u.)
CCCACCTACCTACAGTACTCCACCAGATCAATCCCAACACCGGAGTCACCTAGTGCAG	9890 fluorescence intensity (a.u.)
TGCCACCACCTTACCCTTTGCCAACATGCATCCGCTCCAACGGAGTCACCTAGTGCAG	19100 fluorescence intensity (a.u.)
TGTAATTAGTTATTTTTTTCGTTTATATTTAATACTCTATCGGAGTCACCTAGTGCAG	9460 fluorescence intensity (a.u.)
TATTGTGAATACCATACACTGAGATTTTACACACCGACTCCGGAGTCACCTAGTGCAG	8720 fluorescence intensity (a.u.)
TCGGTGGGTGCCGGGCGGAGCGGTTTTTGAGGGAGGGGTCCGGAGTCACCTAGTGCAG	17600 fluorescence intensity (a.u.)
TATTATTTAAGTCGTGTTGGCTTGAAGCATGCATAATTTGCGGAGTCACCTAGTGCAG	8790 fluorescence intensity (a.u.)
CGACTATAAAGTGGTTTCCCATTTTCTGCTGTATTTTGACCGGAGTCACCTAGTGCAG	10100 fluorescence intensity (a.u.)
CCACGTGGGCCCCACGAGTCATTCTCACCCCTCATCTTCTCGGAGTCACCTAGTGCAG	10900 fluorescence intensity (a.u.)
CTCCCGAGGAAGATGACGAGGAGTCAGTCAACAGTTGACTCGGAGTCACCTAGTGCAG	8130 fluorescence intensity (a.u.)
GCTGTACTGCTCTGCCACCACTTCTCCACTCCACTCCACTCGGAGTCACCTAGTGCAG	8970 fluorescence intensity (a.u.)
GGTCGGTCGCTCTCTCTCGCTCCTCGGCTCCTCTCCATTTCGGAGTCACCTAGTGCAG	8160 fluorescence intensity (a.u.)

Quoted at random: 2 records from the list, in no set order.
Sequence	binding signal
CGTCCGTCCGGCGACCCGGTTTGACCCACCCCAGTAGCGTCGGAGTCACCTAGTGCAG	9280 fluorescence intensity (a.u.)
GGTCTGGTTTTCCGTGTGTGCACGGTCGGGGTGCGCGTGGCGGAGTCACCTAGTGCAG	14300 fluorescence intensity (a.u.)

In a second layout: results already given.

| Sequence | binding signal |
| --- | --- |
| CATATCCTGTACAAATCCGGGAATCGCGTACTCTCACAATCGGAGTCACCTAGTGCAG | 8670 fluorescence intensity (a.u.) |
| GGTCCTGTGTAATTTTCTTCCGCGATGGCCACACGTGACGCGGAGTCACCTAGTGCAG | 9990 fluorescence intensity (a.u.) |
| GGTCTGGTTTTCCGTGTGTGCACGGTCGGGGTGCGCGTGGCGGAGTCACCTAGTGCAG | 14300 fluorescence intensity (a.u.) |

Additional results follow:

Sequence	binding signal
TGCGGGGCGCAAGGCGCGCGGTAGGGGAGGGGTTAGCGCTCGGAGTCACCTAGTGCAG	8190 fluorescence intensity (a.u.)
GACGTACCAACTCAGCACTCAGCACTGCTTCCTTTTTCATCGGAGTCACCTAGTGCAG	9020 fluorescence intensity (a.u.)
ATCCTCTTCTTCTCTTCTCCTCTTCTCTTCACATTCTCTTCGGAGTCACCTAGTGCAG	8530 fluorescence intensity (a.u.)
CAGGCCACACACGTCGATGACTCCACCAGCCGTTATTCTTCGGAGTCACCTAGTGCAG	9560 fluorescence intensity (a.u.)
CAATTATCCTCTGTGCTGTTTGACATTTTCTTGGTTAGTGCGGAGTCACCTAGTGCAG	12000 fluorescence intensity (a.u.)
GCCCCACACCCCGACGAAGCAAAGCATCCCACCAAACAAACGGAGTCACCTAGTGCAG	8190 fluorescence intensity (a.u.)
GCTTCACCTTCGGCTTCGACTTCGGCTTCGTTTCCTCTTCCGGAGTCACCTAGTGCAG	18600 fluorescence intensity (a.u.)
TCTCGATCTCCCCGCCTATTTATGCTCGTCTCGTCACCCGCGGAGTCACCTAGTGCAG	8140 fluorescence intensity (a.u.)
GTCGATGTGTGATGGTGGAATTTTTTCTTCTTTCCTAGCTCGGAGTCACCTAGTGCAG	8360 fluorescence intensity (a.u.)
ACCCTAGCTACTACCTTAGCTCGCATTGATCCATCCATCCCGGAGTCACCTAGTGCAG	10400 fluorescence intensity (a.u.)
AAACACACTGATCTCGATCATCCTCATTGCAAATCACATTCGGAGTCACCTAGTGCAG	8200 fluorescence intensity (a.u.)
AACCCGTAAAACCCACTTATCCACTCTTGCACAATCACATCGGAGTCACCTAGTGCAG	8240 fluorescence intensity (a.u.)
AGGGATTTTGAGTTTTTGCTTGCACGATTTGACTACTCGTCGGAGTCACCTAGTGCAG	8160 fluorescence intensity (a.u.)
CGTCGTCGCTGCCGTGAGGGGTGGCCGGGCGGCGGGGCAACGGAGTCACCTAGTGCAG	8950 fluorescence intensity (a.u.)
TCCCTAAATGTTTGACACCGTTGACCTTTTTAAAACATTTCGGAGTCACCTAGTGCAG	17800 fluorescence intensity (a.u.)
CGCTTGTACTGATTTGGTTTTGGTTGCTGGGTTGGATGGTCGGAGTCACCTAGTGCAG	13300 fluorescence intensity (a.u.)
CTCAGATTAAAGGGGTGGGTACTTCGGGAATGAAGAATAGCGGAGTCACCTAGTGCAG	12100 fluorescence intensity (a.u.)
TCTCTCTCTCCAATTTGCTCCAATCTTTAATTTCCTGCCTCGGAGTCACCTAGTGCAG	8480 fluorescence intensity (a.u.)
GCGGTACCGTGGGTGAAAGGGTACTTCTGTACTTTCGCGTCGGAGTCACCTAGTGCAG	8670 fluorescence intensity (a.u.)
CTATCCTGTGCATTCGTGCCTCCTTCAGGCCTTGTTTTTCCGGAGTCACCTAGTGCAG	11800 fluorescence intensity (a.u.)
GTTGTTATGTGTGTGGGTGTGTGAGGGAGTTTGCACTGCACGGAGTCACCTAGTGCAG	8980 fluorescence intensity (a.u.)

Sequence	binding signal
GATTCCCGCGAAACCAGTTGGTTTCCTTTCCCCGCGGATTCGGAGTCACCTAGTGCAG	12600 fluorescence intensity (a.u.)
CCGGTGTTCGTTATCGTCGTCTCCGTTCGTCCTCGTCGACCGGAGTCACCTAGTGCAG	8310 fluorescence intensity (a.u.)
TACTCTCTCTCATGATATCTGTCTGTCGCACACGGACACGCGGAGTCACCTAGTGCAG	8320 fluorescence intensity (a.u.)
CGTAGAAGGGATTGGGTGAAATTACATGGGCATATAGGGACGGAGTCACCTAGTGCAG	8220 fluorescence intensity (a.u.)
GTTCCTTCCGTGTTTTCATACTCAAAGTCTCAAACCCAGCCGGAGTCACCTAGTGCAG	9020 fluorescence intensity (a.u.)
AGACTGACTTCCGTCGATTTCGAGGGTAACTTTTATTTCCCGGAGTCACCTAGTGCAG	8280 fluorescence intensity (a.u.)
CGCCACAACGGGTTTAGCTCTGTTCCGCTATTCGGCCCATCGGAGTCACCTAGTGCAG	9640 fluorescence intensity (a.u.)
ATAAAATTTCTGATTAATTACTCCACTGTTTTACTTCTCTCGGAGTCACCTAGTGCAG	8090 fluorescence intensity (a.u.)
TACAAATACATTGCTTTTTGGGTGGGTTGTTTTTTCAGCACGGAGTCACCTAGTGCAG	15300 fluorescence intensity (a.u.)
AAGTTGATTTAAGTTTTTTTTACTATAGTTTATTTTCCAGCGGAGTCACCTAGTGCAG	9220 fluorescence intensity (a.u.)
AGACCCTGCCTACAACCTCCGGGCAAATGTGCAGCAGCAACGGAGTCACCTAGTGCAG	8760 fluorescence intensity (a.u.)
TTCGGTTTCGTGGCGGTTGCGTTTCCTCCTCTCTCTTTTCCGGAGTCACCTAGTGCAG	8800 fluorescence intensity (a.u.)
GACCCCGCTCACCCAAAGCTTTCCCTGCTGTCGTTGCTCTCGGAGTCACCTAGTGCAG	10300 fluorescence intensity (a.u.)
CCAACCAACCAACCATCCTTTTGCTTTTGCATCTCACACTCGGAGTCACCTAGTGCAG	10500 fluorescence intensity (a.u.)
TTAATTATTTCTTGGTATTTGGGTTAAGGGTGGTTGTGCCCGGAGTCACCTAGTGCAG	12600 fluorescence intensity (a.u.)
TACAACCTTATTTTTTTCATTTATGCTTATACTTGTACTTCGGAGTCACCTAGTGCAG	10400 fluorescence intensity (a.u.)
TTACTCGCCACCATAGTTTCTATAAGCACACTTTCATAGTCGGAGTCACCTAGTGCAG	8260 fluorescence intensity (a.u.)
CAAAAATCTGTCTGTAACATGTTATTTCGGTAAAATGGAGCGGAGTCACCTAGTGCAG	8640 fluorescence intensity (a.u.)
CCTCGTGCTTTCCTGCCTTGCCGCTGCGTCGCTCTCGCTCCGGAGTCACCTAGTGCAG	11600 fluorescence intensity (a.u.)
TCGCTCGGTTAGACCGTCCACTTCCACACTCACCAGTCACCGGAGTCACCTAGTGCAG	8710 fluorescence intensity (a.u.)
TTTTGTGCTGTTACTAGCTCCTTGTTCTTGCCCTTTCAGCCGGAGTCACCTAGTGCAG	9340 fluorescence intensity (a.u.)

Sequence	binding signal
CGATCCCTGCTCTGTTTTCGAACTCGATCTCTGCCTCCGACGGAGTCACCTAGTGCAG	8630 fluorescence intensity (a.u.)
AAAGTCGTCATCACCCATAGAGCATCATAGCAATAATCTACGGAGTCACCTAGTGCAG	8130 fluorescence intensity (a.u.)
AAAACACAAATTAACCCGGCATAAGCTCTCCAGCCATCCACGGAGTCACCTAGTGCAG	8680 fluorescence intensity (a.u.)
TCCTCCCGCACCTCGGCGTACCTCACCCGCCTCCGGACGACGGAGTCACCTAGTGCAG	9350 fluorescence intensity (a.u.)
CACACCTCCCACGGTCCGGTCCTCACTCCTCCCGCGCGCGCGGAGTCACCTAGTGCAG	9880 fluorescence intensity (a.u.)
TACGCCTCATAGCCGCATCACCCCGATCCCCTCCGTCATCCGGAGTCACCTAGTGCAG	8220 fluorescence intensity (a.u.)
CTTTTACCAGTTGTATATTGAACTTCTGCTATGAAACTTGCGGAGTCACCTAGTGCAG	8150 fluorescence intensity (a.u.)
ACTCTCATCCATACATACATGTCATCTAATCTATATATTCCGGAGTCACCTAGTGCAG	12200 fluorescence intensity (a.u.)
GGAATTGCCTCGTTCCATATCTGCTTTATCTAGCTTGCTACGGAGTCACCTAGTGCAG	8880 fluorescence intensity (a.u.)
GCTACCGCCCGCGCGTCCCTCCACCCCACCCACGCGGTTTCGGAGTCACCTAGTGCAG	8110 fluorescence intensity (a.u.)
GACGCCGTTGATTTTTTCTCACATGTTTGACCATTCGTCTCGGAGTCACCTAGTGCAG	18000 fluorescence intensity (a.u.)
CCAAATGCCCTTCTTAGGTTTGTGCTTAATAATTTGCCACCGGAGTCACCTAGTGCAG	8300 fluorescence intensity (a.u.)
CCACCCACACCGCCTCGCGTCCCCATCCATCACCGTCCATCGGAGTCACCTAGTGCAG	10000 fluorescence intensity (a.u.)
CACCACAGCTTCCCGTTCCTGCTCCCGGCGCGGCGAACCACGGAGTCACCTAGTGCAG	8160 fluorescence intensity (a.u.)
CCTCCACGTGATTTCCTTTTTTGGCACCATATTACTTTCCCGGAGTCACCTAGTGCAG	11200 fluorescence intensity (a.u.)
GTACCAGCGACAGCTTTTCCCTTCCATTTCTTTTCTCCTTCGGAGTCACCTAGTGCAG	10300 fluorescence intensity (a.u.)
GGGGAGGTGAGGGGCAGCCAGGGAGGCGGGGAGTTGCTGCCGGAGTCACCTAGTGCAG	11300 fluorescence intensity (a.u.)
GATATCCTTACCGTTTCCGAGTATACGTTCCGATTCCATTCGGAGTCACCTAGTGCAG	8870 fluorescence intensity (a.u.)
TCTCCATTGCTTCATCTTGATCGGTCATGATACTCTTTGGCGGAGTCACCTAGTGCAG	9240 fluorescence intensity (a.u.)
GCCTGTTTCTCCTTCGGCTGATGATATCTGTGCTGTTTTTCGGAGTCACCTAGTGCAG	8550 fluorescence intensity (a.u.)
TTTTACTTTCCTTTTTTTTTTGGCCATTAGAAAAAGTGCACGGAGTCACCTAGTGCAG	8960 fluorescence intensity (a.u.)

— publication PMC7819943, “Rice protein-binding microarrays: a tool to detect cis-acting elements near promoter regions in rice”
